Measurements: publication PMC7429868
Results are given in words; binding and its absence hold for the method and conditions named. In cells and extracts the contact can be indirect. Some binding calls cover weakened binding; strength is not graded here.

Amino acid sequences for entries named in this document (tags omitted).
UniProt P09936: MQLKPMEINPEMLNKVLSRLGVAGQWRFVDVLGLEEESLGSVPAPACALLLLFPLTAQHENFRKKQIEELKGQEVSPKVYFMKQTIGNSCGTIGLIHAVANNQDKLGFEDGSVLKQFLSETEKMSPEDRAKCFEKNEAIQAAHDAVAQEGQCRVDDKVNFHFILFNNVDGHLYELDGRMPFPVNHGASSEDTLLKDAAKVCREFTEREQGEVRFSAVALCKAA
UniProt P16671: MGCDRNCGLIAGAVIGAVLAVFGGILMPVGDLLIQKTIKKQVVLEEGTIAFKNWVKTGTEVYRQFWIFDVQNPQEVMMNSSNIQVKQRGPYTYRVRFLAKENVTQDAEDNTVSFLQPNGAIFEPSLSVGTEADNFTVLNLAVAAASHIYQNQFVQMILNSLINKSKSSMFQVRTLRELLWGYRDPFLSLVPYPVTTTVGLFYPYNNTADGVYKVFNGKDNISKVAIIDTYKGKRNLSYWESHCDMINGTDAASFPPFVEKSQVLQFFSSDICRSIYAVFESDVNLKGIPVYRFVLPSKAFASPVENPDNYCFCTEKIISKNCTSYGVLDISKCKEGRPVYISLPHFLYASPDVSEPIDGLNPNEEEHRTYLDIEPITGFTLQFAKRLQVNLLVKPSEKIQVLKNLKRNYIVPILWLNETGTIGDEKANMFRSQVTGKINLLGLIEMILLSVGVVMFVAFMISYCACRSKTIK

Target: Ubiquitin C-terminal hydrolase 1 (UCHL1) (not stated (endogenous; human THP1, murine RAW264.7 or mouse peritoneal macrophages were used in the paper)) (UniProt P09936)
Assay: co-IP; antibody (anti-CD36 or anti-UCHL1) bound to dynabeads for 16-24 h, rotated with cell lysate for 1 h, washed with PBS-T, western blot for the other protein; endogenous proteins

binding: binds
Substance: CD36 (scavenger receptor) (from UniProt P16671 1-472)
